Reference: PubChem BioAssay AID652272 (Drosophila RNAi Screening Center, 2013)

Test: 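Genome-wide knock-down search for components of Hedgehog signalling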 (primary screen)
Cells: Drosophila clone 8 (Cl8) cells
Knock-down reagent: long dsRNA against Drosophila genes
Measurement: 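Firefly light from a Hedgehog-responsive ptc promoter reporter and Renilla reference light, both read on a plate reader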
Scale: firefly Hh reporter signal: higher = more ptc reporter light; Renilla reference signal: higher = more Renilla control light
Call rule: 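Hit when the z-score averaged over two replicates is under -2 or over +3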
Calls: active = hit: reporter lowered or raised; inactive = not a hit
The screen tested about 21,000 reagents; below is an unselected part of those with a known target gene and a result. In the full data, 503 (2.4%) were called active. 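Raw plate light values, not normalised; calls rest on replicate z-scores that were not deposited; hits include reporter decreases as well as increases.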 Reagents against one gene are numbered here. Names joined by + are all predicted targets of the reagent. Not given: the amount of reagent, the time to read-out.

gene,reagent no.,"firefly Hh reporter signal, replicate 1","firefly Hh reporter signal, replicate 2","firefly Hh reporter signal, replicate 3","Renilla reference signal, replicate 1","Renilla reference signal, replicate 2",Call
CG1840,1,1.28e5,1.02e5,,2971,2403,inactive
wek,1,77888,43772,,3483,2045,inactive
CG33177,1,70736,2.09e5,,2465,9304,inactive
Hsp110,1,70119,35772,,3158,1904,inactive
frac,1,1.23e5,56068,,5163,2483,inactive
CG18178,1,74027,69401,,3232,2786,inactive
Ice1,1,52112,40160,,1449,3961,inactive
CG1463,1,1.03e5,81927,,2551,1927,inactive
RpS10a,1,1.25e5,94176,,2864,2705,inactive
N,1,1.18e5,2.64e5,,4201,9493,inactive
Cad99C,1,78928,1.35e5,,2288,6105,inactive
Cad99C,2,1.41e5,88624,,3079,2640,inactive
CG8925,1,95201,1.16e5,,1603,3369,inactive
CG8925,2,80073,1.41e5,,2240,3862,inactive
CG8925,3,60785,81915,,1456,2080,inactive
CG32681,1,5.98e5,2.86e5,,33379,6054,inactive
Cdc6,1,84504,41029,,3735,1867,inactive
RpS24,1,50161,24345,,2656,4192,active
CG16995,1,1.09e5,98043,,2704,2274,inactive
vri,1,57256,19728,,1655,2481,inactive
CG12541,1,5.19e5,1.68e5,,27697,3168,inactive
CG12541,2,81619,2.31e5,,2480,8723,inactive

As entered above:
vri, Renilla reference signal, replicate 1: 1655
Under “firefly Hh reporter signal, replicate 2”, CG12541 #2 shows 2.31e5
N, Renilla reference signal, replicate 1 = 4201
Entry for RpS10a in “Renilla reference signal, replicate 2”: 2705
Value for CG1463 in “Renilla reference signal, replicate 2”: 1927
Cad99C #1, Renilla reference signal, replicate 1 → 2288

The listing continues:
gene,reagent no.,"firefly Hh reporter signal, replicate 1","firefly Hh reporter signal, replicate 2","firefly Hh reporter signal, replicate 3","Renilla reference signal, replicate 1","Renilla reference signal, replicate 2",Call
CG42324,1,57066,33771,,2042,2228,inactive
CG42324,2,85447,50161,,3194,3792,inactive
CG7878,1,87954,1.44e5,,3024,2950,inactive
Hmg-2,1,56035,55033,,2203,2464,inactive
Ugt305A1,1,57510,44265,,1897,3274,inactive
CG11099,1,1.21e5,67260,,3367,5904,inactive
Vha68-2,1,1.59e5,73056,,3776,6818,inactive
CG4953,1,64103,42876,,2950,1703,inactive
sbr,1,53257,1.51e5,,1922,6232,inactive
sbr,2,36390,82618,,1211,4241,inactive
Swt1,1,89128,91779,,2149,2116,inactive
Tsp,1,97312,86327,,3570,3272,inactive
Tsp,2,81232,86466,,2261,7804,inactive
CG10338,1,64733,60836,,1712,5057,inactive
COX6AL2 + Ir75d,1,67861,1.59e5,,2136,4091,inactive
Tbcc,1,4.33e5,2.28e5,,22323,9992,inactive
eve,1,96384,71926,,2375,5755,inactive
Mtr4,1,58039,31525,,3770,2240,active
Golgin97,1,1.06e5,79789,,3770,3098,inactive
CG34244,1,1.93e5,,,4955,,inactive
Hipk,1,65744,1.00e5,,2456,5257,inactive
Hipk,2,1.11e5,58669,,4994,2524,inactive
cN-IIIB,1,89095,59002,,3913,2243,inactive
Dyb,1,1.55e5,6.16e5,1.07e5,6368,38131,inactive
CG13931,1,69033,35674,,2640,2507,inactive
Clk,1,52032,51840,,5813,3463,inactive
CG5612,1,1.03e5,95936,,2051,2368,inactive
CG8170,1,63798,48412,,1707,4374,inactive
r-cup,1,90696,1.26e5,,3649,5856,inactive
CG5342,1,75014,1.16e5,,2579,6067,inactive
CG30487,1,1.31e5,3.23e5,,3485,13063,inactive
kek2,1,1.08e5,64731,,2632,6034,inactive
PCNA2,1,88312,65612,,2209,5236,inactive
RpL39,1,33499,34884,,1293,5392,active
CysRS,1,1.59e5,7.54e5,1.20e5,5996,42374,inactive
